{
  "source": "patent US20230060040A1",
  "about": "“USE OF TRANSFERRIN, TRANSFERRIN RECEPTOR AND ANTIBODY THEREOF IN PREPARATION OF ANTI-SARS-CoV-2 DRUG” (KUNMING INSTITUTE OF ZOOLOGY, CHINESE ACADEMY OF SCIENCES, priority 2020, published 2023)",
  "test_system": "SARS-CoV-2",
  "format": "cell-based",
  "details": "Vero E6 cells, 4 μM, 48 h treatment",
  "note": "At least one structure is not confirmed: it was looked up by name or label, or the drawing left a doubt.",
  "data": [
    {"molecule": "CCC(CC)COC(=O)[C@H](C)N[P@](=O)(OC[C@H]1O[C@@](C#N)(c2ccc3c(N)ncnn23)[C@H](O)[C@@H]1O)Oc1ccccc1", "note": "[remdesivir, Remdesivir, reference compound]", "values": [
      {"measurement": "inhibition of SARS-CoV-2 infection of cells (morphology)", "result": "could inhibit SARS-CoV-2 to infect cells"}
    ]}
  ]
}
